Test results from the supplement of paper PMC4604168 (melanoma cell lines).
Some of the results follow. Many values rest on one well or one pass, so single values are uncertain.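 Imaging used 1,536-well plates; nuclei positive for cleaved PARP by antibody were divided by total DNA-stained nuclei to yield the apoptosis fraction. Doses for screening kept most cells viable, and cell lines differ markedly in resting and induced cleaved-PARP levels.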

Legend:
Assay in all cases: cleaved PARP positive nuclei fraction relative to DMSO control; melanoma cells; higher = more apoptosis
Conditions in all cases: library dose: low library concentration; 72 h
501Mel = tested on: 501Mel
A101D = tested on: A101D
A2058 = tested on: A2058
A375 = tested on: A375
C32 = tested on: C32
CBRC008 = tested on: CBRC008 (line from a melanoma biopsy)
CBRC013 = tested on: CBRC013 (line from a melanoma biopsy)
CBRC014 = tested on: CBRC014 (line from a melanoma biopsy)
CBRC016 = tested on: CBRC016 (line from a melanoma biopsy)
CBRC017 = tested on: CBRC017 (line from a melanoma biopsy)
COLO792 = tested on: COLO792
COLO800 = tested on: COLO800
COLO829 = tested on: COLO829
G361 = tested on: G361
IPC-298 = tested on: IPC-298
IST-MEL1 = tested on: IST-MEL1
LB2518-MEL = tested on: LB2518-MEL
LOXIMVI = tested on: LOXIMVI
MEL-HO = tested on: MEL-HO

SMILES	cleaved PARP positive nuclei fraction (501Mel) [%]	cleaved PARP positive nuclei fraction (A101D) [%]	cleaved PARP positive nuclei fraction (A2058) [%]	cleaved PARP positive nuclei fraction (A375) [%]	cleaved PARP positive nuclei fraction (C32) [%]	cleaved PARP positive nuclei fraction (CBRC008) [%]	cleaved PARP positive nuclei fraction (CBRC013) [%]	cleaved PARP positive nuclei fraction (CBRC014) [%]	cleaved PARP positive nuclei fraction (CBRC016) [%]	cleaved PARP positive nuclei fraction (CBRC017) [%]	cleaved PARP positive nuclei fraction (COLO792) [%]	cleaved PARP positive nuclei fraction (COLO800) [%]	cleaved PARP positive nuclei fraction (COLO829) [%]	cleaved PARP positive nuclei fraction (G361) [%]	cleaved PARP positive nuclei fraction (IPC-298) [%]	cleaved PARP positive nuclei fraction (IST-MEL1) [%]	cleaved PARP positive nuclei fraction (LB2518-MEL) [%]	cleaved PARP positive nuclei fraction (LOXIMVI) [%]	cleaved PARP positive nuclei fraction (MEL-HO) [%]
OCc1c[nH]c2ccccc12 [Indole-3-carbinol] + CO[C@@H]1[C@H](N(C)C(=O)c2ccccc2)C[C@H]2O[C@]1(C)n1c3ccccc3c3c4c(c5c6ccccc6n2c5c31)C(=O)NC4 [Midostaurin] (first compound 0.8 µM, partner dose 0.08 µM)	150	205	113	76.1	141	142	100	170	368	77.2	96.3	124	296	111	101	159	208	52.6	73.8
OCc1c[nH]c2ccccc12 [Indole-3-carbinol] + Cc1cc(N2CCOCC2)cc2[nH]c(-c3c(NC[C@@H](O)c4cccc(Cl)c4)cc[nH]c3=O)nc12 [BMS536924] (first compound 0.8 µM, partner dose 0.2 µM)	266	66.5	74.6	110	79.7	281	147	86.1	68.2	73.5	87	105	85.4	127	145	66.1	40	141	71.2
COc1cc(Nc2ncc(F)c(Nc3ccc4c(n3)NC(=O)C(C)(C)O4)n2)cc(OC)c1OC [Tamatinib] + CN(C)S(=O)(=O)c1ccc2c(c1)/C(=C/c1cc3c([nH]1)CCCC3)C(=O)N2 [SU6656] (first compound 0.4 µM, partner dose 0.4 µM)	165	288	243	179	125	471	162	117	123	121	139	263	61.7	76.1	103	142	51.3	44	46.1
CC1(C)NC(=O)N(c2ccc([N+](=O)[O-])c(C(F)(F)F)c2)C1=O [nilutamide] + O=C(O)c1ccc(-c2c[nH]c3ncc(-c4ccccc4)cc23)cc1C1CCCC1 [GSK650394] (first compound 1 µM, partner dose 0.16 µM)	86.9	117	117	137	97.5	564	102	105	152	110	50	148	183	141	144	61.7	118	48.6	53.8
Nc1cccc2c1CN(C1CCC(=O)NC1=O)C2=O (stereo not drawn) [lenalidomide] + O=C(O)c1ccc(-c2c[nH]c3ncc(-c4ccccc4)cc23)cc1C1CCCC1 [GSK650394] (first compound 1 µM, partner dose 0.16 µM)	74.1	68.6	166	107	83.7	357	119	111	197	113	124	92.9	118	84.5	64	140	99	105	64.5
COCC[n+]1c2c(n(Cc3cnccn3)c1C)C(=O)c1ccccc1C2=O + C[C@@H]1CCN(C(=O)CC#N)C[C@@H]1N(C)c1ncnc2[nH]ccc12 [CP690550] (first compound 0.0004 µM, partner dose 1 µM)	122	127	202	228	52.3	510	94.6	180	222	91.6	387	331	149	72.9	49	1280	28.7	2100	143
Clc1ccc(Nc2nnc(Cc3ccncc3)c3ccccc23)cc1 [vatalanib] + CC(C)(C)c1cnc(CSc2cnc(NC(=O)C3CCNCC3)s2)o1 [SNS-032] (first compound 2 µM, partner dose 0.01 µM)	89.5	122	48.2	58.3	129	34.6	177	98.7	128	103	118	55.9	133	136	101	223	49.1	242	151
Clc1ccc(Nc2nnc(Cc3ccncc3)c3ccccc23)cc1 [vatalanib] + NC(=O)Nc1cc(-c2cccc(F)c2)sc1C(=O)N[C@H]1CCCNC1 [AZD7762] (first compound 2 µM, partner dose 0.02 µM)	94.7	211	127	194	70.2	173	112	134	140	122	224	97.6	106	156	45.9	99.7	79.4	62.2	28.3
NC(=O)Nc1cc(-c2cccc(F)c2)sc1C(=O)N[C@H]1CCCNC1 + CN(C)S(=O)(=O)c1ccc2c(c1)/C(=C/c1cc3c([nH]1)CCCC3)C(=O)N2 [SU6656] (first compound 0.02 µM, partner dose 0.4 µM)	75.7	128	117	414	733	67.1	133	89.9	35	114	149	57.9	61	86.5	201	48.1	92.4	76.9	70
CC(=O)c1c(C)c2cnc(Nc3ccc(N4CCNCC4)cn3)nc2n(C2CCCC2)c1=O [palbociclib] + NCC(=O)Nc1ccc(-n2nc(C(F)(F)F)cc2-c2ccc3c(ccc4ccccc43)c2)cc1 [OSU03012] (first compound 0.04 µM, partner dose 1 µM)	91.8	100	52.1	11700	55.8	102	130	97.1	154	94.4	130	139	66.3	106	60.9	75.5	27.8	180	143
Cc1nc(Nc2ncc(C(=O)Nc3c(C)cccc3Cl)s2)cc(N2CCN(CCO)CC2)n1 [dasatanib] + C=CCn1c(=O)c2cnc(Nc3ccc(N4CCN(C)CC4)cc3)nc2n1-c1cccc(C(C)(C)O)n1 [MK1775] (first compound 0.004 µM, partner dose 0.02 µM)	105	111	148	609	476	88.9	120	132	109	85.4	233	268	226	202	90	34.5	54.3	112	147
CO[C@@H]1[C@H](N(C)C(=O)c2ccccc2)C[C@H]2O[C@]1(C)n1c3ccccc3c3c4c(c5c6ccccc6n2c5c31)C(=O)NC4 [Midostaurin] + O=C(O)c1ccc(-c2c[nH]c3ncc(-c4ccccc4)cc23)cc1C1CCCC1 [GSK650394] (first compound 0.08 µM, partner dose 0.16 µM)	87.2	180	115	139	81.5	429	133	121	156	124	110	71.7	152	223	47.3	101	239	91	77.3
Cc1ccc(NC(=O)c2cccc(N(C)C)c2)cc1NC(=O)c1ccc(O)cc1 + O=C(Nc1cccc(Cl)c1)Nc1ncc(CCNc2ncnc3ccsc23)s1 [SNS314] (first compound 2 µM, partner dose 0.0008 µM)	70	89.7	92.1	72.9	158	77.1	87.7	111	154	95.7	106	58.3	101	89.5	106	102	157	60.6	71.9
CC(C)(C)c1cnc(CSc2cnc(NC(=O)C3CCNCC3)s2)o1 + CN(NC(=O)CC(=O)NN(C)C(=S)c1ccccc1)C(=S)c1ccccc1 [STA4783] (first compound 0.01 µM, partner dose 0.006 µM)	119	149	139	3730	293	1310	131	806	283	229	163	121	145	128	62.7	60.5	402	168	36.8
Cc1nc(Nc2ncc(C(=O)Nc3c(C)cccc3Cl)s2)cc(N2CCN(CCO)CC2)n1 [dasatanib] + CC(C)(C)c1cnc(CSc2cnc(NC(=O)C3CCNCC3)s2)o1 [SNS-032] (first compound 0.004 µM, partner dose 0.01 µM)	110	789	116	106	189	80.9	150	88.7	88.2	69.8	121	43.6	113	110	165	57.7	101	165	151
O=C(Nc1cccc(Cl)c1)Nc1ncc(CCNc2ncnc3ccsc23)s1 + NCC(=O)Nc1ccc(-n2nc(C(F)(F)F)cc2-c2ccc3c(ccc4ccccc43)c2)cc1 [OSU03012] (first compound 0.0008 µM, partner dose 1 µM)	192	297	99	541	100	51.4	69.4	91.2	129	103	54.7	106	110	153	88.4	36	115	78.7	66.1
OCCn1cc(-c2cnc3nnn(Cc4ccc5ncccc5c4)c3n2)cn1 + C[C@@H]1CCN(C(=O)CC#N)C[C@@H]1N(C)c1ncnc2[nH]ccc12 [CP690550] (first compound 1 µM, partner dose 1 µM)	385	82.8	151	15.1	31.7	37.1	152	69	61.6	93.8	140	63.1	73.9	101	44.1	89.3	22.5	16	188

Individual results from above.
cleaved PARP positive nuclei fraction (C32) [%], OCc1c[nH]c2ccccc12 [Indole-3-carbinol] + CO[C@@H]1[C@H](N(C)C(=O)c2ccccc2)C[C@H]2O[C@]1(C)n1c3ccccc3c3c4c(c5c6ccccc6n2c5c31)C(=O)NC4 [Midostaurin] (first compound 0.8 µM, partner dose 0.08 µM) is entered as 141
cleaved PARP positive nuclei fraction (COLO829) [%], CC(=O)c1c(C)c2cnc(Nc3ccc(N4CCNCC4)cn3)nc2n(C2CCCC2)c1=O [palbociclib] + NCC(=O)Nc1ccc(-n2nc(C(F)(F)F)cc2-c2ccc3c(ccc4ccccc43)c2)cc1 [OSU03012] (first compound 0.04 µM, partner dose 1 µM) is entered as 66.3
